{
  "source": "paper PMC7819943",
  "about": "“Rice protein-binding microarrays: a tool to detect cis-acting elements near promoter regions in rice”",
  "note": "The other results are listed elsewhere or left out.",
  "data": [
    {"target": "T1, OsSMF1 (Oryza sativa, UniProt Q6ZLB0 1-436)", "T1 sequence": "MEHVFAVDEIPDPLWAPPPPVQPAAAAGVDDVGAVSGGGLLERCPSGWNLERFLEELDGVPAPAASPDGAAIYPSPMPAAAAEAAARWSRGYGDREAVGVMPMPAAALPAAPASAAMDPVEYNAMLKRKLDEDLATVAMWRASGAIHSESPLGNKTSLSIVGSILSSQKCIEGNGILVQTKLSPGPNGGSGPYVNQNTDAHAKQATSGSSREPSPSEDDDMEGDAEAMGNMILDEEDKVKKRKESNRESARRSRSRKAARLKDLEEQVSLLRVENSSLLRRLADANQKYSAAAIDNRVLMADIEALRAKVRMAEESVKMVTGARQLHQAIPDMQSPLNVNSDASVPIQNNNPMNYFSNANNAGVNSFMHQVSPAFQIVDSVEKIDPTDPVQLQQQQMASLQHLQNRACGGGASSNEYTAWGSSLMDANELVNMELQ", "test": "protein-binding microarray (RPBM); PBS, 2% BSA, 51.3 ng/ul salmon testes DNA, 50 uM zinc acetate, 200 nM TF, 25 C, 1 h; high values mean tight binding", "details": "protein: recombinant; tags: N-terminal polyhistidine and DsRed monomer fusion (pET32a); chain copies: 2; label: CyDye5-dUTP incorporated in the synthesized complementary strand; 3' TTTTT single-stranded linker to array surface; dsDNA, one strand shown", "procedure,_shortened": "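For the binding signal, per-feature fluorescence intensity was read in arbitrary units on an Axon 4000B scanner. Before scanning, a 2% BSA-blocked custom Agilent array made double-stranded with Cy5-dUTP was washed after 1 h at 25 °C with 200 nM protein and 50 µM zinc acetate. The proteins were Ni–NTA-purified transcription factors with N-terminal polyhistidine and DsRed fusions, expressed in E. coli BL21-CodonPlus.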", "values": [
      {"sequence": "ACCCGACCGCTACGCTGTCCTCCTAGGTGCTCACCAAGATCGGAGTCACCTAGTGCAG", "binding signal": "3360 fluorescence intensity (a.u.)"},
      {"sequence": "TCAATCATTCACATATGGCAATGACTCATACTCTTAATTGCGGAGTCACCTAGTGCAG", "binding signal": "12000 fluorescence intensity (a.u.)"},
      {"sequence": "CTTTGTCCGTTGCTTTTGCGGCGTGGGGTGACGCGGGGTACGGAGTCACCTAGTGCAG", "binding signal": "5120 fluorescence intensity (a.u.)"},
      {"sequence": "CTCCGAATCATTATCTACTGGGCTTATATTGAGCCAGGCCCGGAGTCACCTAGTGCAG", "binding signal": "3650 fluorescence intensity (a.u.)"},
      {"sequence": "CCGTCTTCCCGTCGACGATGCCCGACGTGTCCTTGCCCCACGGAGTCACCTAGTGCAG", "binding signal": "6960 fluorescence intensity (a.u.)"},
      {"sequence": "AACATCAGCATGTTGGGCATCATGCCCTGCGGCCAGAAATCGGAGTCACCTAGTGCAG", "binding signal": "19100 fluorescence intensity (a.u.)"},
      {"sequence": "GTTTGCTAAATTTGGATGTCATCTGCATTGTGGGCTCGCTCGGAGTCACCTAGTGCAG", "binding signal": "4810 fluorescence intensity (a.u.)"},
      {"sequence": "GGACGTAGCCGTCGTCCTAGTCACTCACTCACTCATCACGCGGAGTCACCTAGTGCAG", "binding signal": "8140 fluorescence intensity (a.u.)"},
      {"sequence": "AGGATGTTCCTGACCTGGCCTTTGCCGGGTGATTTTGCAGCGGAGTCACCTAGTGCAG", "binding signal": "4510 fluorescence intensity (a.u.)"},
      {"sequence": "ACTCCTCACATATATATATATACCACATTGTTGTCATGGCCGGAGTCACCTAGTGCAG", "binding signal": "3490 fluorescence intensity (a.u.)"},
      {"sequence": "ACCGGCTCATTGCACACGTCAGGCATCTCGCGCCTATGTGCGGAGTCACCTAGTGCAG", "binding signal": "10400 fluorescence intensity (a.u.)"},
      {"sequence": "GGTAGTTTTGCTGACGATTTCATCCGACGTGGCGTGTTGACGGAGTCACCTAGTGCAG", "binding signal": "14300 fluorescence intensity (a.u.)"},
      {"sequence": "CCAGTCAATTAGTCAAACCCCATCCACCTCTCCTGGCTCTCGGAGTCACCTAGTGCAG", "binding signal": "4540 fluorescence intensity (a.u.)"},
      {"sequence": "CCGTATCGCATGCCCTCCCTCCCCGCATCGCACTTCTCCACGGAGTCACCTAGTGCAG", "binding signal": "3490 fluorescence intensity (a.u.)"},
      {"sequence": "TTACATGAACAGGGAAACCCTTTGGTTGTCAGCGTTCCTCCGGAGTCACCTAGTGCAG", "binding signal": "3440 fluorescence intensity (a.u.)"},
      {"sequence": "AGAAATATTTACGAACTGTTACTACTTGCTTGGACATATTCGGAGTCACCTAGTGCAG", "binding signal": "3310 fluorescence intensity (a.u.)"},
      {"sequence": "TTACCCTTAGTCATTTGACCCTATTACATGTGGGACCCACCGGAGTCACCTAGTGCAG", "binding signal": "3900 fluorescence intensity (a.u.)"},
      {"sequence": "GTGGAGATGTTTGGGATGAGTCACTTGAATCTCCTTTCTACGGAGTCACCTAGTGCAG", "binding signal": "10200 fluorescence intensity (a.u.)"},
      {"sequence": "TGACCGTCCGATCCCACGTCAGAGCAAGATGGACCGTCCGCGGAGTCACCTAGTGCAG", "binding signal": "11000 fluorescence intensity (a.u.)"},
      {"sequence": "AAATACAGGATATAAACGGACGTGTGGTCTCGTGGATCGGCGGAGTCACCTAGTGCAG", "binding signal": "3180 fluorescence intensity (a.u.)"},
      {"sequence": "CGCTCCGGCTCGCCATGACTGCCTATGTGGACCTGCCTCTCGGAGTCACCTAGTGCAG", "binding signal": "4660 fluorescence intensity (a.u.)"},
      {"sequence": "ACGCTACCTATAATAAGCTGATGTGCCAATCTTGGAGCCACGGAGTCACCTAGTGCAG", "binding signal": "4050 fluorescence intensity (a.u.)"},
      {"sequence": "GGAATAAATTATTTATCATTGGACCTACATGTCATGGACACGGAGTCACCTAGTGCAG", "binding signal": "3950 fluorescence intensity (a.u.)"}
    ]}
  ]
}
